According to PMC6406603:
These are yes or no findings as the source states them, for the method shown. Some binding calls cover weakened binding; strength is not graded here.

Amino acid sequences for entries named in this document (tags omitted). A change or cut given only in a name is not applied to a line headed by its entry. Residues count along the entry.
UniProt P55087, residues 23-323: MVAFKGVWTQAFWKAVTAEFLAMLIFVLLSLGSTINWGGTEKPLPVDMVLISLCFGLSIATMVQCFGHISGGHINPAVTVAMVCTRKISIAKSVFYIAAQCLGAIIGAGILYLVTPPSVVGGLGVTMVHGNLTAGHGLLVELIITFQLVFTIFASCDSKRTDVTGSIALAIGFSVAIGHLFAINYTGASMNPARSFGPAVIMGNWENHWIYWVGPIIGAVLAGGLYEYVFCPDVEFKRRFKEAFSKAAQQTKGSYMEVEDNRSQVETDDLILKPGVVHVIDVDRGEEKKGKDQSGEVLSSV

Experiments:
[1] = target: human M23-AQP4 expressed in HEK-FS cells (human) (UniProt P55087); assay: native gel or EMSA; 2D BN/SDS-PAGE: 3-9% gradient blue native PAGE then 13% SDS-PAGE, AQP4 immunoblot; whole cells lysed in BN buffer (1% DDM, 12 mM NaCl, 500 mM 6-aminohexanoic acid, 20 mM Bis-Tris pH 7.0)
[2] = target: human M23-AQP4 expressed in DI TNC1 cells (human) (UniProt P55087); assay: SEC; native SEC (nSEC) on Sephacryl S-500 16/60, RT, 0.15% DDM, 150 mM NaCl; DDM extract (3% DDM) of plasma membrane-enriched vesicles injected; AQP4 in fractions by dot blot
[3] = target: human M23-AQP4 expressed in DI TNC1 cells (human) (UniProt P55087); assay: native gel or EMSA; 2D BN/SDS-PAGE: 3-9% gradient blue native PAGE then 13% SDS-PAGE, AQP4 immunoblot; whole cells lysed in BN buffer (1% DDM, 12 mM NaCl, 500 mM 6-aminohexanoic acid, 20 mM Bis-Tris pH 7.0)

| binding [1] | binding [2] | binding [3] | Substance |
| --- | --- | --- | --- |
| binds | – | – | human M23-AQP4 expressed in HEK-FS cells (from UniProt P55087-2 1-301) |
| – | binds | binds | human M23-AQP4 expressed in DI TNC1 cells (from UniProt P55087-2 1-301) |
